No constants are given. Whether binding was seen depends on the method and setting. In cells and extracts the contact can be indirect. A result given as binding can be weak or reduced; the word gives no strength.
Molecular target: T1, endogenous C9orf72 (mouse brain) (mouse (endogenous in mouse brain)) (UniProt Q6DFW0)
T1 sequence: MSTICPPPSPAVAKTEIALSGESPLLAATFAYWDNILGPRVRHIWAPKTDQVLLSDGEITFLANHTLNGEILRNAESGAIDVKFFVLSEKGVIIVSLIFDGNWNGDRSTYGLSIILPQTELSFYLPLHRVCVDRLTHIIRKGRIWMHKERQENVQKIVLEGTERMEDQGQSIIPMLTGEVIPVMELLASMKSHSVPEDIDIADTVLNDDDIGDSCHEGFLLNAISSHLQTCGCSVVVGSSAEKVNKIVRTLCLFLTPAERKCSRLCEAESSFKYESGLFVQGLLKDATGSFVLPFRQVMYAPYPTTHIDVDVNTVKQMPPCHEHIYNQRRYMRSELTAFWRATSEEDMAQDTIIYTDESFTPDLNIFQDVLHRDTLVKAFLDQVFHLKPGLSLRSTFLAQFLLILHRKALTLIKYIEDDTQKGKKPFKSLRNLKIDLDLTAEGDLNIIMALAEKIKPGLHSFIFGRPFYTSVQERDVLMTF
Experiment: co-IP; endogenous C9orf72 precipitated from adult mouse brain extract in RIPA buffer with mAb 1C1 overnight at 4 °C, then A/G magnetic beads for 3 h at 4 °C; control IgG alone; immunoblot against RAB3

binding: binds
Substance: endogenous RAB3 (mouse brain)

Source: publication PMC6091050
